# Experimental data as given in the supplement of paper PMC12819154, “High-throughput peptide-centric local stability assay extends protein–ligand identification to membrane proteins, tissues and bacteria” (Nature Structural & Molecular Biology, 2025).
# Amino acid sequences for entries named in this document (tags omitted). A change or cut given only in a name is not applied to a line headed by its entry.
# UniProt Q93074, whole entry: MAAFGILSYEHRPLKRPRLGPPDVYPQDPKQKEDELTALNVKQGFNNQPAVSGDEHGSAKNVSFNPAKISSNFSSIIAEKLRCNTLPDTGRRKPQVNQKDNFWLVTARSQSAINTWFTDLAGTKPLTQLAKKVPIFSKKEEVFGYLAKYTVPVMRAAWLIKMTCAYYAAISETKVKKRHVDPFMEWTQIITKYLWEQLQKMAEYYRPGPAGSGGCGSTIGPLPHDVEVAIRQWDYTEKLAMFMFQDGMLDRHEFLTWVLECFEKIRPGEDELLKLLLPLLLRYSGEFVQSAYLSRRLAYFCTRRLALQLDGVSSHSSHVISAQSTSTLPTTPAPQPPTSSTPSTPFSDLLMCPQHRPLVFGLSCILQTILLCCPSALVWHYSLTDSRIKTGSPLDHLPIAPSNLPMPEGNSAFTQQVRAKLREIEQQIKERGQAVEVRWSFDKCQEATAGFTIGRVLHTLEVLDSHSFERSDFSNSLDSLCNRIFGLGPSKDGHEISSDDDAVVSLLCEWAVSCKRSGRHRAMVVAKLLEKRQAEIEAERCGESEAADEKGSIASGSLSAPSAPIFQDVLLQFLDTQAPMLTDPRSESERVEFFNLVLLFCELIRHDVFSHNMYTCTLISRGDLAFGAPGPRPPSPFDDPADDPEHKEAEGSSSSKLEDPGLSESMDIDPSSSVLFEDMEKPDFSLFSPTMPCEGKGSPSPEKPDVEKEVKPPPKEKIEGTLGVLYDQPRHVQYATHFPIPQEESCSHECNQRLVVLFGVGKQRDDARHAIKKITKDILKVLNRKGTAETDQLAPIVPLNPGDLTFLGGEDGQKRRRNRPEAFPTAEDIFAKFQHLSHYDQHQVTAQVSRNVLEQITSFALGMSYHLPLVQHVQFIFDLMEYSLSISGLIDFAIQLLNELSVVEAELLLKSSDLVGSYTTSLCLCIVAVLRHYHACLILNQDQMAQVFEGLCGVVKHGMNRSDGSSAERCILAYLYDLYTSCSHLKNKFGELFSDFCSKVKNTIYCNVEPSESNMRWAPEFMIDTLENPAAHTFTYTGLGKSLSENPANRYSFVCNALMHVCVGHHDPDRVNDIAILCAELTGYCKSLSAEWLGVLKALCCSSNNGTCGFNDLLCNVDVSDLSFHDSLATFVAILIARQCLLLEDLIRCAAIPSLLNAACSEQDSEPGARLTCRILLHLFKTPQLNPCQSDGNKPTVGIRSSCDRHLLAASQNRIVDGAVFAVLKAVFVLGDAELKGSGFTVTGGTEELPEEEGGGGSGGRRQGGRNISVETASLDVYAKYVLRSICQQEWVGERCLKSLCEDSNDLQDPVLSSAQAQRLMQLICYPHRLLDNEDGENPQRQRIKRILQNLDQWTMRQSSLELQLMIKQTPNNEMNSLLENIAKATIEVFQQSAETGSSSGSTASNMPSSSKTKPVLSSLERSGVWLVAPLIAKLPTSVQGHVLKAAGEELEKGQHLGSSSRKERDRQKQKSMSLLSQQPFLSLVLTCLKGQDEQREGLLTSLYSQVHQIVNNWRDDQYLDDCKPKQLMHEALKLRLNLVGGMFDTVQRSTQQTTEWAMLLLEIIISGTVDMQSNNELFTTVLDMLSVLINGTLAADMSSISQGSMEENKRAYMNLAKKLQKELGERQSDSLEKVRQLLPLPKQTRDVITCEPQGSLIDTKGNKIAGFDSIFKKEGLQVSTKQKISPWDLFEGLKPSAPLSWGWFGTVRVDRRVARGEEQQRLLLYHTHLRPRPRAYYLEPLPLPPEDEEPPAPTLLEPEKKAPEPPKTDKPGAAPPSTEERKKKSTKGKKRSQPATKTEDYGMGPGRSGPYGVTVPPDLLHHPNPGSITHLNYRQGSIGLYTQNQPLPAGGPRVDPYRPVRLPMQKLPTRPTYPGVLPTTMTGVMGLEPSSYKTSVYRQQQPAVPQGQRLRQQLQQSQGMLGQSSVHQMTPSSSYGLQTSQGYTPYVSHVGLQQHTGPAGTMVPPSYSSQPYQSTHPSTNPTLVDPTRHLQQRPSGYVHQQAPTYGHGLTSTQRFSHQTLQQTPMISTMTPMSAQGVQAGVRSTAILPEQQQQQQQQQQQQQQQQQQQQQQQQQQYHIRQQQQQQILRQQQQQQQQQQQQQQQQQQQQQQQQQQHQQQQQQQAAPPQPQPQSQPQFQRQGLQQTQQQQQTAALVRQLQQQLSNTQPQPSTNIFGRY
# UniProt Q96E35: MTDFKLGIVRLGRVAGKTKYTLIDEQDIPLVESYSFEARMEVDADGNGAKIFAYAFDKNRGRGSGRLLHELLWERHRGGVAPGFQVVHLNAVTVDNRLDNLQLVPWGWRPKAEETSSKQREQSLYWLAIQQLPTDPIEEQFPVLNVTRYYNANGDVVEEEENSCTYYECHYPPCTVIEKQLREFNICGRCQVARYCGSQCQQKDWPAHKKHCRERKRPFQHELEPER
# UniProt Q92997: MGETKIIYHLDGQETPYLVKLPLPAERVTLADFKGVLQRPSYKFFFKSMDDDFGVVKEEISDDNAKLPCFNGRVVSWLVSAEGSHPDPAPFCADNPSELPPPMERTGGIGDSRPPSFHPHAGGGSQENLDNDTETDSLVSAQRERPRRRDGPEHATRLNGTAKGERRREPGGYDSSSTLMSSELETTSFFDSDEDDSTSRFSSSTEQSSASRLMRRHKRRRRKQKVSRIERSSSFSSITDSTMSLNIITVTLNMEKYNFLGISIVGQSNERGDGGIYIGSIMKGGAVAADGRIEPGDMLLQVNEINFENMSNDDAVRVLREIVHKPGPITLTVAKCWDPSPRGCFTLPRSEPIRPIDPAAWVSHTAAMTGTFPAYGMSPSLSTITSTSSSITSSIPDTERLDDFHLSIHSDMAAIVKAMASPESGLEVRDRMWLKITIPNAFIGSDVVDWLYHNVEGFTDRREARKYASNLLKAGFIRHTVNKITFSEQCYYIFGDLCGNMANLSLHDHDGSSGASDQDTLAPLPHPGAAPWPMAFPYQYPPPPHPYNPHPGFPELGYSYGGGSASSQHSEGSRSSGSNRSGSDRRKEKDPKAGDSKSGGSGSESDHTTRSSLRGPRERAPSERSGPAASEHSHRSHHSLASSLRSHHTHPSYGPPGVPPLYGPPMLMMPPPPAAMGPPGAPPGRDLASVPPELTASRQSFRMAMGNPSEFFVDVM
# UniProt Q92870: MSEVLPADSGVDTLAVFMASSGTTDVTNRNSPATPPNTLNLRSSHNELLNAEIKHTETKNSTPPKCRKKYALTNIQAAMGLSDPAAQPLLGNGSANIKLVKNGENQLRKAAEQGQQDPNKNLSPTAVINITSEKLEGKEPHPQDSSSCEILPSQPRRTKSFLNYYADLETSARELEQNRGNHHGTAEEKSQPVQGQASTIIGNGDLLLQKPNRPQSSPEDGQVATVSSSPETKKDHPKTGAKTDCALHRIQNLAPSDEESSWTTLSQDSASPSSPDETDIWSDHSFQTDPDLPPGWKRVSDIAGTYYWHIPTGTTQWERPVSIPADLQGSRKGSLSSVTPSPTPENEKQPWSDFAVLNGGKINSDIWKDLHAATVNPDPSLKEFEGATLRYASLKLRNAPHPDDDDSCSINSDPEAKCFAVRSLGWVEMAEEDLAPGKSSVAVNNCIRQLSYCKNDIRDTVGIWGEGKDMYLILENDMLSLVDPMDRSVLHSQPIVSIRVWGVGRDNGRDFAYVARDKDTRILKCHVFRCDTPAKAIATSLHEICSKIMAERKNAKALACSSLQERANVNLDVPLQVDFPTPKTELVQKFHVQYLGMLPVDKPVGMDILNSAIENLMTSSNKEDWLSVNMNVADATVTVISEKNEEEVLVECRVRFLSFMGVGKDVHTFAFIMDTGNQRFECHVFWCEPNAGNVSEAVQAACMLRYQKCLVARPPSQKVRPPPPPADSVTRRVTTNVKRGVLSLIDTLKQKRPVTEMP
# UniProt Q92834: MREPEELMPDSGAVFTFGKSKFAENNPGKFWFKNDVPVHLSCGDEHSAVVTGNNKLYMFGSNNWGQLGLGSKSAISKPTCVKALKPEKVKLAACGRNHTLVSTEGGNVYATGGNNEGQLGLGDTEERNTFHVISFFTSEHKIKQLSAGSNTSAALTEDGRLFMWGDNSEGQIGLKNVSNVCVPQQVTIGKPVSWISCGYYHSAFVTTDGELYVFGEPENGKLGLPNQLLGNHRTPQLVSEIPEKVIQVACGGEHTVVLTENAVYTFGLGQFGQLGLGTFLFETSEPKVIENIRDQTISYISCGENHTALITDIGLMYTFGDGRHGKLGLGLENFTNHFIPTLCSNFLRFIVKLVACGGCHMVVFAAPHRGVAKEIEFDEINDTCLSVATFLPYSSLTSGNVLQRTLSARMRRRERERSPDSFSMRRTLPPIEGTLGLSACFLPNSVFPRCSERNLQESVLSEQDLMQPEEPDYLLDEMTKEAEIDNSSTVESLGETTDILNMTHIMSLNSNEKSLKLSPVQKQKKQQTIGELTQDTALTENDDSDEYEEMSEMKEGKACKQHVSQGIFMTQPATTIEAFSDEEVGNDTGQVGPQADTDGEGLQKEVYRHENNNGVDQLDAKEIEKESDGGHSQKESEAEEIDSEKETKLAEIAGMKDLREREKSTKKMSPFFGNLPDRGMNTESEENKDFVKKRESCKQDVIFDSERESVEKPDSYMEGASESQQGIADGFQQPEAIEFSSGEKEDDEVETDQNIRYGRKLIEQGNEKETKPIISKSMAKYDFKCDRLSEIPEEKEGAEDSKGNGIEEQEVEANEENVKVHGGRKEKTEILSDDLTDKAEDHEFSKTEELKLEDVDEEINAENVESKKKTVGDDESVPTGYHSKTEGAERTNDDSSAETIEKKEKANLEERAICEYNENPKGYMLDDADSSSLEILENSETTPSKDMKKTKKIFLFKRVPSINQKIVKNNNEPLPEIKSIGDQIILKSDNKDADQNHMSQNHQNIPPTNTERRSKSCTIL
# UniProt Q96AV8: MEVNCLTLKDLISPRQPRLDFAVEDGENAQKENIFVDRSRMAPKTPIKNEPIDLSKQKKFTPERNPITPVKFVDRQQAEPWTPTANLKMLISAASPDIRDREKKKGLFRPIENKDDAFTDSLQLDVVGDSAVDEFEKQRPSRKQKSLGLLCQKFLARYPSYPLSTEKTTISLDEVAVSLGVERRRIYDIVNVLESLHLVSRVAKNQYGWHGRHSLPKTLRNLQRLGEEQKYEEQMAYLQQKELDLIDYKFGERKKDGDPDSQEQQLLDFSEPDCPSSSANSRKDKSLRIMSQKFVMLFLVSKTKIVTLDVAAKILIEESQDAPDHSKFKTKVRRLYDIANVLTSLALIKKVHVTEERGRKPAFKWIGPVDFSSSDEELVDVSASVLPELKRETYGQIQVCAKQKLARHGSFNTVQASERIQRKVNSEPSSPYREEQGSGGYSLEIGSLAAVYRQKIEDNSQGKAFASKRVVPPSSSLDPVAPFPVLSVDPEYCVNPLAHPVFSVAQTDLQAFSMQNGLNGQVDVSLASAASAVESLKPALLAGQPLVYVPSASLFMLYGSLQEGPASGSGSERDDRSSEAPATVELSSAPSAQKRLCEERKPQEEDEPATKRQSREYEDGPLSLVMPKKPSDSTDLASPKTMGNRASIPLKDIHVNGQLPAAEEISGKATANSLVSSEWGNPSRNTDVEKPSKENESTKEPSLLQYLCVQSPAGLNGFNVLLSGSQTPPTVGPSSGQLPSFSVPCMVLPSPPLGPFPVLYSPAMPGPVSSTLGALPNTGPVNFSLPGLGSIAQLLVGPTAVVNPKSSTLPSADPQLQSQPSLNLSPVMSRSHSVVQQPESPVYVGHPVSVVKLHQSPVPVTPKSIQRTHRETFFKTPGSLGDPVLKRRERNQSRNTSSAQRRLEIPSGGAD
# UniProt Q969G6: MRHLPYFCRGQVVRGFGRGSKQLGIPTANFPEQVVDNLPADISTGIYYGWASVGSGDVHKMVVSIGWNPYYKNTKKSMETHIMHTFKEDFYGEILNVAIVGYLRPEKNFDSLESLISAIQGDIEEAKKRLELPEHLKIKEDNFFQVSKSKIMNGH
# UniProt Q92871: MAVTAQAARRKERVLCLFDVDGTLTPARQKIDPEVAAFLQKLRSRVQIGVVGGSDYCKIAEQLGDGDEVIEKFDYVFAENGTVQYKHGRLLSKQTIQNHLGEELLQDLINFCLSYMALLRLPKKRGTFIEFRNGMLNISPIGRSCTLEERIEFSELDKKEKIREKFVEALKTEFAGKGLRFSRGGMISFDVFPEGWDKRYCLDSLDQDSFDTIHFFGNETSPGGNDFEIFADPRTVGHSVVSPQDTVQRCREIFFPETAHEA
# UniProt Q96AG4: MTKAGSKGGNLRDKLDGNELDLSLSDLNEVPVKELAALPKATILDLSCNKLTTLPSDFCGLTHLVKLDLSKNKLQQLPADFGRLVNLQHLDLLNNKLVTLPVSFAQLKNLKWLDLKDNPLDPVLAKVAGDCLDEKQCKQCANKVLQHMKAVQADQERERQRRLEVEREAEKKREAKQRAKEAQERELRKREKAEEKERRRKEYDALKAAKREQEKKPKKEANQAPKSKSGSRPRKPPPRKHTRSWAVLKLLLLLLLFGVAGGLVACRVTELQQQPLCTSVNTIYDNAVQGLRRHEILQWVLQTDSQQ
# The other results are listed elsewhere or left out. Most values lie at the level of the controls, where differences are scatter.
# Compound: Cc1nc(Nc2ncc(C(=O)Nc3c(C)cccc3Cl)s2)cc(N2CCN(CCO)CC2)n1 [dasatinib]
# Assay: log2 fold change of tryptic peptide abundance, ligand vs vehicle (limited proteolysis) (log2 ratio); higher = more trypsin-susceptible (destabilized)
# Settings: ligand concentration: 5 uM; sample: K562 cleared lysate
row,Target,log2 fold change
1,"MED12 (peptide sequence: QKEDELTALNVK, peptide start residue: 31) (UniProt Q93074)",-0.27
2,"ZMYND19 (peptide sequence: MEVDADGNGAK, peptide start residue: 40) (UniProt Q96E35)",0.164
3,"DVL3 (peptide sequence: SGPAASEHSHR, peptide start residue: 625) (UniProt Q92997)",-0.298
4,"APBB2 (peptide sequence: VRPPPPPADSVTR, peptide start residue: 719) (UniProt Q92870)",0.271
5,"RPGR (peptide sequence: LAEIAGMKDLRER, peptide start residue: 649) (UniProt Q92834)",0.214
6,"UniProt Q96AV8 (peptide sequence: TPIKNEPIDLSK, peptide start residue: 45)",0.495
7,"RFK (peptide sequence: IKEDNFFQVSK, peptide start residue: 138) (UniProt Q969G6)",-0.0973
8,"PMM1 (peptide sequence: EKFVEALKTEFAGK, peptide start residue: 164) (UniProt Q92871)",0.506
9,"LRRC59 (peptide sequence: AVQADQER, peptide start residue: 150) (UniProt Q96AG4)",-0.502
